Experimental data from the supplement of paper PMC8166895.
Counter-ions that a name gives are not always drawn. Some of the results follow. Most values lie at the level of the controls, where differences are scatter.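 Melting temperature was read by differential scanning fluorimetry in a single-replicate pilot screen of a library of approved drugs and clinical or known-target compounds. Compounds raising the melting point by at least 2 °C were the top stabilizing hits, and negative shifts mean destabilization.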

These molecules were tested on SARS-CoV-2 main protease (Mpro, nsp5) (assay: thermal shift ΔTm of Mpro relative to plate average Tm; higher = stronger thermal stabilization of Mpro (binding)). Settings: 10 µM; protein concentration 1 µM.
With `Oc1ccc(Cl)cc1Cc1cc(Cl)ccc1O` [Dichlorophen] the “thermal shift ΔTm of Mpro” value was 0.303 °C. `NS(=O)(=O)c1cc(C(=O)O)c(NCc2ccco2)cc1Cl` [Furosemide] was tested, and the “thermal shift ΔTm of Mpro” value was -0.156 °C. In the case of `CCOc1cc([C@@H](CS(C)(=O)=O)N2C(=O)c3cccc(NC(C)=O)c3C2=O)ccc1OC`, the “thermal shift ΔTm of Mpro” value is reported as -0.247 °C. For `Cc1cc(C2CCCCC2)n(O)c(=O)c1` [Ciclopirox ethanolamine], the “thermal shift ΔTm of Mpro” value was -0.0411 °C. With `Cc1cc(C2CCCCC2)n(O)c(=O)c1` [Ciclopirox] the “thermal shift ΔTm of Mpro” value was 0.0366 °C. With `CC1=C(C(=O)OC(C)C)C(c2cccc([N+](=O)[O-])c2)C(C(=O)OC2CN(C(c3ccccc3)c3ccccc3)C2)=C(N)N1` (stereo unspecified) [Azelnidipine] the “thermal shift ΔTm of Mpro” value was 0.639 °C. In the case of `CN[C@H]1CN(c2ccc3c(=O)c(C(=O)O)cn(-c4nccs4)c3n2)C[C@@H]1OC` [Voreloxin (SNS-595)], the “thermal shift ΔTm of Mpro” value is reported as -0.238 °C. For `COc1cc(C(=O)NS(=O)(=O)c2ccccc2C)ccc1Cc1cn(C)c2ccc(NC(=O)OC3CCCC3)cc12` [Zafirlukast], the “thermal shift ΔTm of Mpro” value was -0.115 °C. With `Cl[C@H]1[C@H](Cl)[C@@H](Cl)[C@@H](Cl)[C@H](Cl)[C@H]1Cl` [Lindane] the “thermal shift ΔTm of Mpro” value was 0.216 °C. With `S=C1SCN(Cc2ccccc2)CN1Cc1ccccc1` [Sulbentine] the “thermal shift ΔTm of Mpro” value was 0.058 °C. For `CCc1cncnc1N1CCN(Cc2nc3ccc(C(F)(F)F)cc3[nH]2)CC1`, the “thermal shift ΔTm of Mpro” value was -0.219 °C. For `CC1(C)C(C=C(Cl)c2ccc(Cl)cc2)C1C(=O)OC(C#N)c1ccc(F)c(Oc2ccccc2)c1` (stereo unspecified) [Flumethrin], the “thermal shift ΔTm of Mpro” value was 0.00977 °C. For `C/C=C(/C)C(=O)O[C@@H]1[C@H](OC(=O)CC(C)C)c2c(ccc3ccc(=O)oc23)OC1(C)C` [Praeruptorin C], the “thermal shift ΔTm of Mpro” value was -0.167 °C. `CNC(=O)c1ccccc1Nc1nc(Nc2ccc3c(c2OC)CCC[C@H](N2CCN(CCO)CC2)C3)ncc1Cl` was tested, and the “thermal shift ΔTm of Mpro” value was 0.0505 °C. In the case of `CC(=O)OCC(=O)[C@@]12N=C(C)O[C@@H]1C[C@H]1[C@@H]3CCC4=CC(=O)C=C[C@]4(C)[C@H]3[C@@H](O)C[C@@]12C` [Deflazacort], the “thermal shift ΔTm of Mpro” value is reported as 0.0663 °C. For `OCc1cc(C(O)CNCCCCCCOCCCCc2ccccc2)ccc1O` (stereo unspecified) [Salmeterol Xinafoate], the “thermal shift ΔTm of Mpro” value was -0.127 °C. With `C=C1C[C@@H]2[C@H](CC[C@]3(C)C(=O)CC[C@@H]23)[C@@]2(C)C=CC(=O)C=C12` [Exemestane] the “thermal shift ΔTm of Mpro” value was 0.186 °C. For `Cc1nc2n(c(=O)c1CCN1CCC(c3noc4cc(F)ccc34)CC1)CCCC2` [Risperidone], the “thermal shift ΔTm of Mpro” value was -0.0287 °C. For `CNCCC(Oc1ccc(C(F)(F)F)cc1)c1ccccc1` (stereo unspecified) [Fluoxetine HCl], the “thermal shift ΔTm of Mpro” value was 0.54 °C. `CNCCC(Oc1ccc(C(F)(F)F)cc1)c1ccccc1` (stereo unspecified) [Fluoxetine] was tested, and the “thermal shift ΔTm of Mpro” value was 0.154 °C. In the case of `C=C1c2c(Cl)ccc(O)c2C(O)=C2C(=O)[C@]3(O)C(O)=C(C(N)=O)C(=O)[C@@H](N(C)C)[C@@H]3[C@@H](O)[C@H]12.O=C(O)c1cc(S(=O)(=O)O)ccc1O` [Meclocycline sulfosalicylate salt], the “thermal shift ΔTm of Mpro” value is reported as 0.0721 °C. In the case of `C[C@@H](CN1CC(=O)NC(=O)C1)N1CC(=O)NC(=O)C1` [Dexrazoxane HCl (ICRF-187, ADR-529)], the “thermal shift ΔTm of Mpro” value is reported as 0.15 °C. `CC(=O)Nc1ccc(CC(=O)O)cc1` [Actarit] was tested, and the “thermal shift ΔTm of Mpro” value was 0.331 °C. In the case of `Nc1c(Br)cc(Br)cc1C=O` [BroMhexine IMpurity B], the “thermal shift ΔTm of Mpro” value is reported as 0.459 °C. With `CC(=O)N[C@H]1[C@H]([C@H](O)[C@H](O)CO)OC(C(=O)O)=C[C@@H]1NC(=N)N` [Zanamivir] the “thermal shift ΔTm of Mpro” value was 0.148 °C. For `N#Cc1c(-c2ccccc2)cc(-c2cc(Br)ccc2O)[nH]c1=O`, the “thermal shift ΔTm of Mpro” value was 0.106 °C. `CCC(=O)O[C@]1(C(=O)CCl)[C@@H](C)C[C@H]2[C@@H]3C[C@H](F)C4=CC(=O)C=C[C@]4(C)[C@@]3(F)[C@@H](O)C[C@@]21C` [Halobetasol Propionate] was tested, and the “thermal shift ΔTm of Mpro” value was -0.156 °C. For `Cc1c(C(=O)NN2CCOCC2)nn(-c2ccc(Cl)cc2Cl)c1-c1ccc(I)cc1`, the “thermal shift ΔTm of Mpro” value was -0.485 °C. `CCN1CC(CCN2CCOCC2)C(c2ccccc2)(c2ccccc2)C1=O` (stereo unspecified) [Doxapram HCl] was tested, and the “thermal shift ΔTm of Mpro” value was 0.0183 °C. In the case of `Cc1cnc(CNC(=O)c2c(=O)c3ccc(N4CCCN(C)CC4)nc3n3c2sc2ccccc23)cn1`, the “thermal shift ΔTm of Mpro” value is reported as 0.342 °C. `NC(=O)N1c2ccccc2CCc2ccccc21` [10,11-Dihydrocarbamazepine] was tested, and the “thermal shift ΔTm of Mpro” value was -0.108 °C. `CCCCNC(=O)NS(=O)(=O)c1ccc(C)cc1` [Tolbutamide] was tested, and the “thermal shift ΔTm of Mpro” value was -0.00493 °C. With `C[C@@H]1O[C@@H](O[C@H]2[C@H](Oc3cc(O)c(C(=O)CCc4ccc(O)cc4)c(O)c3)O[C@H](CO)[C@@H](O)[C@@H]2O)[C@H](O)[C@H](O)[C@H]1O` [Naringin Dihydrochalcone] the “thermal shift ΔTm of Mpro” value was 0.00249 °C. `O=C(O)c1cc(-c2ccc(F)cc2F)ccc1O` [Diflunisal] was tested, and the “thermal shift ΔTm of Mpro” value was -0.279 °C. For `CCOC(=O)COc1ccc(/C=C2/SC(=S)NC2=O)cc1OC`, the “thermal shift ΔTm of Mpro” value was -0.0346 °C. `O=C(Nc1c(Cl)cncc1Cl)c1ccc(OC(F)F)c(OCC2CC2)c1` [Roflumilast] was tested, and the “thermal shift ΔTm of Mpro” value was -0.0915 °C. For `CCOC(=O)OC(C)OC1=C(C(=O)Nc2ccccn2)N(C)S(=O)(=O)c2ccccc21` (stereo unspecified) [Ampiroxicam], the “thermal shift ΔTm of Mpro” value was 0.113 °C. With `Cc1cccc(-c2[nH]c(CNc3ccccc3F)nc2-c2ccc3ncnn3c2)n1` the “thermal shift ΔTm of Mpro” value was 0.0583 °C. In the case of `CC(=O)[C@H]1CC[C@H]2[C@@H]3C[C@H](C)C4=CC(=O)CC[C@]4(C)[C@H]3[C@@H](O)C[C@]12C` [Medrysone], the “thermal shift ΔTm of Mpro” value is reported as -0.146 °C. With `C=CC(=O)N1CC/C(=C\c2ccc(F)c([N+](=O)[O-])c2)C(=O)/C(=C/c2ccc(F)c([N+](=O)[O-])c2)C1` the “thermal shift ΔTm of Mpro” value was -0.0818 °C. With `CCCS(=O)(=O)Nc1ccc(F)c(C(=O)c2c[nH]c3ncc(-c4ccc(Cl)cc4)cc23)c1F` [Vemurafenib (PLX4032, RG7204)] the “thermal shift ΔTm of Mpro” value was 0.465 °C. In the case of `CCOc1ccccc1OCCN[C@H](C)Cc1ccc(OC)c(S(N)(=O)=O)c1` [Tamsulosin hydrochloride], the “thermal shift ΔTm of Mpro” value is reported as 0.162 °C. In the case of `O=S(=O)(O)CCS` [Mesna], the “thermal shift ΔTm of Mpro” value is reported as -0.11 °C. In the case of `CN(C)C1CCN(C(=O)c2ccc(NC(=O)Nc3ccc(-c4nc(N5CCOCC5)nc(N5CCOCC5)n4)cc3)cc2)CC1` [Gedatolisib], the “thermal shift ΔTm of Mpro” value is reported as 0.151 °C. For `Nc1nc(=O)c2c([nH]1)NC[C@@H](CNc1ccc(C(=O)N[C@@H](CCC(=O)O)C(=O)O)cc1)N2C=O` [Folinic Acid Calcium Salt Pentahydrate], the “thermal shift ΔTm of Mpro” value was 0.169 °C. `COc1ccc2cc([C@@H](C)C(=O)O)ccc2c1` [(R)-Naproxen] was tested, and the “thermal shift ΔTm of Mpro” value was 0.1 °C. `CC(C)NCC(O)COc1cccc2ccccc12` (stereo unspecified) [Propranolol HCl] was tested, and the “thermal shift ΔTm of Mpro” value was 0.19 °C. `COc1ccc(C2C(C#N)=C(N)OC3=C2C(=O)CC(c2cccc4ccccc24)C3)cc1` (stereo unspecified) was tested, and the “thermal shift ΔTm of Mpro” value was -0.0995 °C. For `NC(=S)c1ccncc1` [Thioisonicotinamide], the “thermal shift ΔTm of Mpro” value was 0.211 °C. `Cc1nc(NC(=O)N2CCC[C@H]2C(N)=O)sc1-c1ccnc(C(C)(C)C(F)(F)F)c1` was tested, and the “thermal shift ΔTm of Mpro” value was -0.146 °C. In the case of `CCCCc1nc(C)c(CC(=S)N(C)C)c(=O)n1Cc1ccc(-c2ccccc2-c2nnn[nH]2)cc1` [Fimasartan], the “thermal shift ΔTm of Mpro” value is reported as 0.0719 °C. In the case of `Cc1cc(C)c(NC(=O)C2CC3CCC2C3)c(C)c1` (stereo unspecified), the “thermal shift ΔTm of Mpro” value is reported as -0.0435 °C. With `Cc1[nH]c(/C=C2\C(=O)Nc3ccc(S(=O)(=O)N(C)c4cccc(Cl)c4)cc32)c(C)c1C(=O)N1CCN(C)CC1` the “thermal shift ΔTm of Mpro” value was 0.185 °C. With `CCCCCCc1ccc(O)cc1O` [Hexylresorcinol] the “thermal shift ΔTm of Mpro” value was -0.00795 °C. For `CN(C)Cc1ccc(-c2nc3cccc4c3n2CCNC4=O)cc1`, the “thermal shift ΔTm of Mpro” value was -0.137 °C. With `O=C(/C=C\n1cnc(-c2cc(C(F)(F)F)cc(C(F)(F)F)c2)n1)NNc1cnccn1` the “thermal shift ΔTm of Mpro” value was 0.196 °C. With `CN(C)CCSSCCNC(=O)C1CCN(C(=O)CSc2ccc(Cl)cc2)CC1` the “thermal shift ΔTm of Mpro” value was -0.429 °C. For `COC(=O)[C@@H]1[C@H]2C[C@H]3c4[nH]c5ccccc5c4CCN3C[C@@H]2CC[C@@H]1O` [Yohimbine HCl], the “thermal shift ΔTm of Mpro” value was -0.0423 °C. For `N#C[C@@H]1C[C@@H]2C[C@@H]2N1C(=O)[C@@H](N)C12CC3CC(CC(O)(C3)C1)C2` [Saxagliptin hydrate], the “thermal shift ΔTm of Mpro” value was 0.148 °C. `N#C[C@@H]1C[C@@H]2C[C@@H]2N1C(=O)[C@@H](N)C12CC3CC(CC(O)(C3)C1)C2` [Saxagliptin] was tested, and the “thermal shift ΔTm of Mpro” value was -0.179 °C. With `CCS(=O)(=O)CCn1c([N+](=O)[O-])cnc1C` [Tinidazole] the “thermal shift ΔTm of Mpro” value was 0.134 °C. With `O=C1CCc2cc(OCCCCc3nnnn3C3CCCCC3)ccc2N1` [Cilostazol] the “thermal shift ΔTm of Mpro” value was 0.112 °C. With `Oc1ccc(-c2nc3cc(O)cc(Br)c3o2)cc1` the “thermal shift ΔTm of Mpro” value was 0.203 °C. For `CCOC(=O)c1ccc(NC(=O)O[C@H]2[C@H](OC(=O)Nc3ccc4c(c3)OCO4)[C@@H](OC(=O)Nc3ccc4c(c3)OCO4)[C@@H](OC)O[C@@H]2CO)cc1`, the “thermal shift ΔTm of Mpro” value was -0.117 °C. For `CCNC(=O)C#Cc1ccc2c(C(=Nc3ccc(CN(C)C)cc3)c3ccccc3)c(O)[nH]c2c1`, the “thermal shift ΔTm of Mpro” value was -0.237 °C. In the case of `CCCCOc1cc(C(=O)NCCN(CC)CC)c2ccccc2n1` [Dibucaine HCl], the “thermal shift ΔTm of Mpro” value is reported as -0.0402 °C. In the case of `CCCCOc1cc(C(=O)NCCN(CC)CC)c2ccccc2n1` [Dibucaine], the “thermal shift ΔTm of Mpro” value is reported as 0.00139 °C. `CCC(C)SSc1ncc[nH]1` (stereo unspecified) was tested, and the “thermal shift ΔTm of Mpro” value was -3.15 °C. With `COc1cc(/C=C/c2ccccc2)oc(=O)c1` [Desmethoxy yangonin] the “thermal shift ΔTm of Mpro” value was 0.0449 °C. In the case of `Cc1coc2c1C(=O)C(=O)c1c-2ccc2c(C)cccc12` [Tanshinone I], the “thermal shift ΔTm of Mpro” value is reported as -0.106 °C. With `C[C@@]12C[C@@]3(O)O[C@@H](O1)[C@]1(COC(=O)c4ccccc4)[C@H]3C[C@@]12O[C@@H]1O[C@H](CO)[C@@H](O)[C@H](O)[C@H]1O` [Paeoniflorin] the “thermal shift ΔTm of Mpro” value was -0.042 °C. With `C[C@H]1CNCCc2ccc(Cl)cc21` [Lorcaserin HCl] the “thermal shift ΔTm of Mpro” value was -0.136 °C. In the case of `Cc1ccccc1-n1c(Cn2nc(-c3cccc(O)c3)c3c(N)ncnc32)nc2cccc(C)c2c1=O`, the “thermal shift ΔTm of Mpro” value is reported as -0.124 °C. For `COc1cc(Nc2nc3ccccc3nc2NS(=O)(=O)c2ccc(NC(=O)c3ccc(C)c(OC)c3)cc2)cc(OC)c1`, the “thermal shift ΔTm of Mpro” value was 1.03 °C. For `CCC1=C(C)CN(C(=O)NCCc2ccc(S(=O)(=O)NC(=O)N[C@H]3CC[C@H](C)CC3)cc2)C1=O` [Glimepiride], the “thermal shift ΔTm of Mpro” value was 0.348 °C. With `CC(C)N1C(=O)N(c2ccccc2)CS/C1=N\C(C)(C)C` [Buprofezin] the “thermal shift ΔTm of Mpro” value was -0.12 °C.
